Results as given in the supplement of paper PMC10849652.
Some of the results follow.

Protein sequences, listed by entry. Tags and fused reporters are not part of them. Lines headed by an entry give the natural chain unless they say otherwise; changes in a name come on top.
UniProt Q9P265: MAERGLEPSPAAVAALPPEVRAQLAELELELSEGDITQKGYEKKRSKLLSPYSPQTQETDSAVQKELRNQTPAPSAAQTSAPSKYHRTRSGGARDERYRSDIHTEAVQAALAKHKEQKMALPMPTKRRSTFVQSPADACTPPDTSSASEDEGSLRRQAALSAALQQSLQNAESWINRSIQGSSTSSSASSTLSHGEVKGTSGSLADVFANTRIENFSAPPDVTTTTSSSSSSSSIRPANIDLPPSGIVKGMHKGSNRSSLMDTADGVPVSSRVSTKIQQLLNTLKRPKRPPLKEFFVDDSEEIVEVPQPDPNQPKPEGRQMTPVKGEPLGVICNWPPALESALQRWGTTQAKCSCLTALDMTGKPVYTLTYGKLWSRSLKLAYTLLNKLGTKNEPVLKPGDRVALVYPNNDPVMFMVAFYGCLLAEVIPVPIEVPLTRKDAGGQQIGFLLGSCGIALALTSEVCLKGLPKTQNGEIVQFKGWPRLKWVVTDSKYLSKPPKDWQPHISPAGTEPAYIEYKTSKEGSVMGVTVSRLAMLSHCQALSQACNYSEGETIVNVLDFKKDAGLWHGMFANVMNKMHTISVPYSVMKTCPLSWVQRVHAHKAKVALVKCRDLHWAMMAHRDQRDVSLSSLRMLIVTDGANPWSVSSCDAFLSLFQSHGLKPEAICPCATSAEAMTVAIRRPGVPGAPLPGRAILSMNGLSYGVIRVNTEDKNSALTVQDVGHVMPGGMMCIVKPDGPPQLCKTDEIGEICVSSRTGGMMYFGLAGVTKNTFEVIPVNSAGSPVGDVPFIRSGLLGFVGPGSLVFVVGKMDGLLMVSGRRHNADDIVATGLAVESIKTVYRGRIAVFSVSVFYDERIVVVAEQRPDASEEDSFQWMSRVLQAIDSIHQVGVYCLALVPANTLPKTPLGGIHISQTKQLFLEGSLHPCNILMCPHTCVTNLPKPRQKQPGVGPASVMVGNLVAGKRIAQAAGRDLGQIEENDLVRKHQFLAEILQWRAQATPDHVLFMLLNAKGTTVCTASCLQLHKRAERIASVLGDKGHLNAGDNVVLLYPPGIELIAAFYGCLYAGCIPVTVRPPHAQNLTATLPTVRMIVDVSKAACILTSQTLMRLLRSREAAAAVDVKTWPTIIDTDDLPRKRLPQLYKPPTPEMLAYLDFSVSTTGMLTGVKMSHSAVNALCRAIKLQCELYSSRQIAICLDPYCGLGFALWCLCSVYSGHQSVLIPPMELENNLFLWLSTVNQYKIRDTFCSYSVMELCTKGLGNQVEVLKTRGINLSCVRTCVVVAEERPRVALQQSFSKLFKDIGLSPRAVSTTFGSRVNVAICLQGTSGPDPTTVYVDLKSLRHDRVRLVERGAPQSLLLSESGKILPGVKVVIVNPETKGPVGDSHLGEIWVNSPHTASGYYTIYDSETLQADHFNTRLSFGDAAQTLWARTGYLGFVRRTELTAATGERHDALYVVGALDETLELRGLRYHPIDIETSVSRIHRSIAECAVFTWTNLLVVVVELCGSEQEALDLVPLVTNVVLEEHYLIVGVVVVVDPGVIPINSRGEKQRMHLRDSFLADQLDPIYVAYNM
UniProt Q15392: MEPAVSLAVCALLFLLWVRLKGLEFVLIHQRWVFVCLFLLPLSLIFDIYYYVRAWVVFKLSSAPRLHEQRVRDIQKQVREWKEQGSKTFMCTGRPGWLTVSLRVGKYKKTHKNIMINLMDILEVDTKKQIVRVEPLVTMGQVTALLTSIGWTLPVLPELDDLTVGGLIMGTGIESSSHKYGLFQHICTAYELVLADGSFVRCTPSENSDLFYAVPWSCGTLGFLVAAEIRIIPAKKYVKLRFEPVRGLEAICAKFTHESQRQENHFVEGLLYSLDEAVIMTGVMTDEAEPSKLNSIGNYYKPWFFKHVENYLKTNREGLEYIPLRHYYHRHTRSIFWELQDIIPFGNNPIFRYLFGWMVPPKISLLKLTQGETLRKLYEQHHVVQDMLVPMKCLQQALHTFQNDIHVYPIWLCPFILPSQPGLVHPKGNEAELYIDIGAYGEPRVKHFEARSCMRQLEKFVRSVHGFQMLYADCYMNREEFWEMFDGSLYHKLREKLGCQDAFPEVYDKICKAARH
UniProt Q9H2U1: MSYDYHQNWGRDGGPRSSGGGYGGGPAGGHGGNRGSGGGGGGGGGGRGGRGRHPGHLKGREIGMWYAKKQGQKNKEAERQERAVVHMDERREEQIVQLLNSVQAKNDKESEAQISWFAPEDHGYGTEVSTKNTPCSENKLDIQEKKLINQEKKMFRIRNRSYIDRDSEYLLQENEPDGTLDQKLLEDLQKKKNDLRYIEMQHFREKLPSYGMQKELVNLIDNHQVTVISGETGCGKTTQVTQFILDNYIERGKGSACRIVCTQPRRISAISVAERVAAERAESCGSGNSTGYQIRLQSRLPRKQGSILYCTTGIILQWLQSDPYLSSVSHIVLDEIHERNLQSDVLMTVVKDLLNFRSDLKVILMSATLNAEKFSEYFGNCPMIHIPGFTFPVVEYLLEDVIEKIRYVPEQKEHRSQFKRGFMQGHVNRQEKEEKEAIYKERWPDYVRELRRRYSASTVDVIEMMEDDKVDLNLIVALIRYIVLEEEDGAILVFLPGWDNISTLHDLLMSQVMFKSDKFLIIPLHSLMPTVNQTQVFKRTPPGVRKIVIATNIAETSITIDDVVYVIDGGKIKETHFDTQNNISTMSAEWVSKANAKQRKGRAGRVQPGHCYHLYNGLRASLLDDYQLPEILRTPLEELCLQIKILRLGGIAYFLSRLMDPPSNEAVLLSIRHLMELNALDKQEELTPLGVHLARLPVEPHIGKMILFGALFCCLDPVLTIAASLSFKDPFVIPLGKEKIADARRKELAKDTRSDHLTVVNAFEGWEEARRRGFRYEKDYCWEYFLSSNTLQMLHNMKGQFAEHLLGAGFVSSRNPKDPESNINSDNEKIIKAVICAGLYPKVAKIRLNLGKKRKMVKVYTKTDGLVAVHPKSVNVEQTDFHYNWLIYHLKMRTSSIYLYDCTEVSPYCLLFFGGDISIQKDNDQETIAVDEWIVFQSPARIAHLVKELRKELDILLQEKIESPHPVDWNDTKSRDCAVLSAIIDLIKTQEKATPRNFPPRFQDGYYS
UniProt Q9NR30: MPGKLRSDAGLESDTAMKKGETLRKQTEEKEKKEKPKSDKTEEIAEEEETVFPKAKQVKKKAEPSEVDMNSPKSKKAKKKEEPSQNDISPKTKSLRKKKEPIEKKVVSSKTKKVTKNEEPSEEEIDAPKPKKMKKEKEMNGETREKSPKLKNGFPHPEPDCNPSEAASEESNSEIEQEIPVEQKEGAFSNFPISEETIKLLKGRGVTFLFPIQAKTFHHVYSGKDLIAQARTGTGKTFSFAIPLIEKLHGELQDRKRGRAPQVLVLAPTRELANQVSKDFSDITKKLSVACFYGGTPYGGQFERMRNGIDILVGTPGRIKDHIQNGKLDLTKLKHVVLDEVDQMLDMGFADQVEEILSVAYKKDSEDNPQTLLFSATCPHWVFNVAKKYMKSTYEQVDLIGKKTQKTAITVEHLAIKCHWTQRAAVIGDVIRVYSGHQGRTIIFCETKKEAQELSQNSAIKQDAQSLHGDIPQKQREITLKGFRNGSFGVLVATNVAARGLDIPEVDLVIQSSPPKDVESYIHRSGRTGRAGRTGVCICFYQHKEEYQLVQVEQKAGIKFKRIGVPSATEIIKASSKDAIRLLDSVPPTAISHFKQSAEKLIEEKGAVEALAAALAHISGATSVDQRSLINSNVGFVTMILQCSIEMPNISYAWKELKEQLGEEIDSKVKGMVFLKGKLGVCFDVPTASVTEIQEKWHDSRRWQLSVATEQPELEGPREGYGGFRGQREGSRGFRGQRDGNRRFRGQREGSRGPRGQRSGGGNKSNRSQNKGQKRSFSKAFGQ
UniProt Q9NQI0, whole entry, looked up: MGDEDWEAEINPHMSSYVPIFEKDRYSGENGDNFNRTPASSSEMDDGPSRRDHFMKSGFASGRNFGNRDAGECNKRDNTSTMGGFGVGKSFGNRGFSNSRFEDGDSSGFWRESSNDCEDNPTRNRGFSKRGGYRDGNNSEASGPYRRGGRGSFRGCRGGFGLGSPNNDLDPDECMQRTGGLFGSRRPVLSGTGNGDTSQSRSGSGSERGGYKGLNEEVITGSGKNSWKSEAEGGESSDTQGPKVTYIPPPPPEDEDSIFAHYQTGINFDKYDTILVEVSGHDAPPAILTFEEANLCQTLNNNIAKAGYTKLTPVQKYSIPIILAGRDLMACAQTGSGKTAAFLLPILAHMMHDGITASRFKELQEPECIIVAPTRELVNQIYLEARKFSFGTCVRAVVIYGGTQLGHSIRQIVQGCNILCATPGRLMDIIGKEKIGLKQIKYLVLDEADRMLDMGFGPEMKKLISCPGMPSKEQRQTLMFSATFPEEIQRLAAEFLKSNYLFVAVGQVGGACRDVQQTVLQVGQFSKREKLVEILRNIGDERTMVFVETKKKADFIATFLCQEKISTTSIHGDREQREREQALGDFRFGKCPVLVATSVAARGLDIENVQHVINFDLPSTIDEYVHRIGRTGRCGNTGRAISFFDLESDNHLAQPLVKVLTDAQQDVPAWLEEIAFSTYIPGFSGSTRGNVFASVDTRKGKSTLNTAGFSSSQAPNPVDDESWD
UniProt Q9Y394: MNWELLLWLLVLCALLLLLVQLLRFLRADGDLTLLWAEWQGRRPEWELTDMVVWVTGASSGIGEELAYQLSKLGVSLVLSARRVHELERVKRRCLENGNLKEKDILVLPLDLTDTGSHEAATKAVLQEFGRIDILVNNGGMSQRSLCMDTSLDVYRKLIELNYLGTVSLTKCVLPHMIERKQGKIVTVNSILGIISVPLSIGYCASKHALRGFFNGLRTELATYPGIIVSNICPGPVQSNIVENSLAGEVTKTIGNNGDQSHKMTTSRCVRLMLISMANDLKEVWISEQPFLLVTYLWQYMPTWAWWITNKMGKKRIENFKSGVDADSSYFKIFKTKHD
UniProt Q9Y2H0: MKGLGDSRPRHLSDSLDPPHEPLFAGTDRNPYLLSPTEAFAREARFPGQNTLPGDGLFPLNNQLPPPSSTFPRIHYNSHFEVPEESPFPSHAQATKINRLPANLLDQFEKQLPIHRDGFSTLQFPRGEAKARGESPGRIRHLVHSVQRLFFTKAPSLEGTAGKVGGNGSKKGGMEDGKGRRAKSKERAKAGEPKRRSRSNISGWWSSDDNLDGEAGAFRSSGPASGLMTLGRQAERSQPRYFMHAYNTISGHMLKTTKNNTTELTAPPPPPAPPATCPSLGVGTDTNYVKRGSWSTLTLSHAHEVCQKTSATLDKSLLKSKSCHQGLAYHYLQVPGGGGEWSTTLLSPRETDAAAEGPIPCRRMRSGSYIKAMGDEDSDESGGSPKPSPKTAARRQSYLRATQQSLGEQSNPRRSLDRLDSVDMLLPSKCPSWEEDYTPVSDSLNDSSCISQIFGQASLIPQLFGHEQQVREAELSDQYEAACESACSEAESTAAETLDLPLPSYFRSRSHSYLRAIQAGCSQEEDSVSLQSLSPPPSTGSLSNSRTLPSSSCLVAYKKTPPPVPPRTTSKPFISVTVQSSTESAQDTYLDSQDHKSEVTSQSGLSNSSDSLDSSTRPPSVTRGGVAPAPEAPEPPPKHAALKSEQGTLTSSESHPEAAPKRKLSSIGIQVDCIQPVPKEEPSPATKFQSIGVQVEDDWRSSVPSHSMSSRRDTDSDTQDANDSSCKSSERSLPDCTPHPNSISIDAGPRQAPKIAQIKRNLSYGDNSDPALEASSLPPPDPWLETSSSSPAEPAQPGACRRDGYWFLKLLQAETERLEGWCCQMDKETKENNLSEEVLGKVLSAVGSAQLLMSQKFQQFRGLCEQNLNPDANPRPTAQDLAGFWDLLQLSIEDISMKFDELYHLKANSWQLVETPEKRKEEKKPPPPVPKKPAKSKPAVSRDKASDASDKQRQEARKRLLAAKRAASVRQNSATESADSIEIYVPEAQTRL
UniProt O95865: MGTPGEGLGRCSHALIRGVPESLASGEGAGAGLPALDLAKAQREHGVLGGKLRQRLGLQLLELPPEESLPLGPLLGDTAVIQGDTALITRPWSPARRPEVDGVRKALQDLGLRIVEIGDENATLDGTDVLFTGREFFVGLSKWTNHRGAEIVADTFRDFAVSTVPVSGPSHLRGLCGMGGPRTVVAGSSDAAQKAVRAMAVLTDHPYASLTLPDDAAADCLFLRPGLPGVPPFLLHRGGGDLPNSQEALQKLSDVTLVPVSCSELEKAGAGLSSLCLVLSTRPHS

How the values were obtained:
Assay in all cases: log2 fold change, soluble protein after heating vs DMSO (PISA); higher = thermal stabilisation; K562 cells, 10 uM, 30 min; active = over 0.2 and 3.5 SD of the protein, either way, in both replicates (recomputed)
[1] = compound: CC1=C(C=C(C=C1)NC(=O)C2=CC(=CC=C2)C(C)(C)C#N)NC3=CC4=C(C=C3)N=CN(C4=O)C
Outline: (§1)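 K562 cells (2×10^6 cells/mL) were treated with 10 μM compound for 30 min, and aliquots were heated for 3 min over 48°C-58°C. Pooled aliquots were extracted in PBS with 0.5% NP-40 at 4°C, and the supernatant after 21,000xg for 90 min was measured by TMTpro 16plex LC-MS/MS with channel sums equalised. Reported thermal stability, relative to control samples and from duplicates, is a log2 fold change.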

[2] = compound: CC1=C(C=C(C=C1)NC(=O)C2=CC(=CC=C2)N(C)C)NC(=O)C3=CC=C(C=C3)O
Outline: as §1

[3] = compound: CC1=CC=C(C=C1)SC2=C3C=C(SC3=CN=C2)C(=O)N
Outline: as §1

[4] = compound: CC1=NC(=CC=C1)C2=C(N=C(N2)C(C)(C)C)C3=CC4=NC=CN=C4C=C3
Outline: as §1

[5] = compound: CCCCN(Cc1ccc(C(=O)NO)cc1)C(=O)Nc1ccccc1 [Nexturastat A]
Outline: as §1

[6] = compound: CCCS(=O)(=O)Nc1ccc(F)c(C(=O)c2c[nH]c3ncc(-c4ccc(Cl)cc4)cc23)c1F [vemurafenib]
Outline: as §1

[7] = compound: CCCS(=O)(=O)Nc1ccc(F)c(C(=O)c2c[nH]c3ncc(Cl)cc23)c1F
Outline: as §1

[8] = compound: CCCc1cc(C)[nH]c(=O)c1CNC(=O)c1cc(-c2ccnc(N3CCN(C)CC3)c2)cc2c1cnn2C(C)C
Outline: as §1

[9] = compound: CCN(CC)Cc1ccc2cc(COC(=O)Nc3ccc(C(=O)NO)cc3)ccc2c1 [givinostat]
Outline: as §1

[10] = compound: CCN(CCCOc1ccc2c(Nc3cc(CC(=O)Nc4cccc(F)c4)[nH]n3)ncnc2c1)CCOP(=O)(O)O [barasertib]
Outline: as §1

[11] = compound: CC[C@@H]1C(=O)N(C)c2cnc(Nc3ccc(C(=O)NC4CCN(C)CC4)cc3OC)nc2N1C1CCCC1
Outline: as §1

[12] = compound: CC[C@@H]1C(=O)N(C)c2cnc(Nc3ccc(C(=O)N[C@H]4CC[C@H](N5CCN(CC6CC6)CC5)CC4)cc3OC)nc2N1C(C)C [volasertib]
Outline: as §1

[13] = compound: CC[C@H](C)N1C=C(C2=C(C=C(C=C21)C3=CN=C(C=C3)N4CCNCC4)C(=O)NCC5=C(C=C(NC5=O)C)C)C
Outline: as §1

[14] = compound: CC[C@H](C)[C@@H](C(=O)N[C@@H]([C@@H](C)O)C(=O)N[C@@H](CC(C)C)C(=O)[C@]1(CO1)C)NC(=O)[C@H]([C@@H](C)CC)N(C)C(=O)C [epoxomicin]
Outline: as §1

[15] = compound: CCn1c(C(=O)N(C2CC2)C2CC2)cc2c3c(ncn3C)c(Nc3cc(C)n(C)n3)nc21
Outline: as §1

[16] = compound: CCn1cc(-c2ccnc3[nH]c(-c4cccc(CN(C)C)c4)cc23)c(-c2ccc(NC(=O)N(C)C)cc2)n1
Outline: as §1

[17] = compound: CN(C)CC(=O)Nc1ccc2[nH]c(=O)c3ccccc3c2c1
Outline: as §1

[18] = compound: CN(CCOC1=CC=C(C=C1)C[C@H]2C(=O)NC(=O)S2)C3=CC=CC=N3 (racemic) [rosiglitazone]
Outline: as §1

[19] = compound: CN1C2=C(C3=C1C(=O)N(N=C3)CC4=CC(=CC=C4)N)SC(=C2)S(=O)C
Outline: as §1

[20] = compound: CN1CCC(CNc2ccc3ncc(-c4cccc(OC(F)(F)F)c4)n3n2)CC1
Outline: as §1

Measured: log2 fold change

DIP2B (UniProt Q9P265)
inactive: [1] 0.017 | [2] -0.005 | [3] 0.005 | [4] -0.003 | [5] -0.021 | [6] -0.022 | [7] 0.018 | [8] 0.011 | [9] 0.006 | [10] -0.011 | [11] 0.02 | [12] -0.037 | [13] 0.023 | [14] 0.011 | [15] 0.001 | [16] -0.031 | [17] 0.003 | [18] 0.015 | [19] -0.082 | [20] -0.008

DHCR24 (UniProt Q15392)
active: [9] 1.21 | [12] 1.21
inactive: [1] 0.248 | [2] 0.01 | [3] -0.003 | [4] -0.043 | [5] 0.004 | [6] -0.114 | [7] -0.012 | [8] 0.434 | [10] 0.088 | [11] 0.769 | [13] 0.104 | [14] -0.056 | [16] 0.06 | [17] 0.236 | [19] -0.094 | [20] 0.525

DHX36 (UniProt Q9H2U1)
inactive: [1] 0.015 | [2] 0 | [3] -0.034 | [4] -0.033 | [5] 0.111 | [6] 0.012 | [7] 0.02 | [8] -0.005 | [9] -0.031 | [10] -0.064 | [11] 0.11 | [12] 0.059 | [13] 0.002 | [14] -0.032 | [16] 0.032 | [17] -0.032 | [19] 0.086 | [20] -0.027

DDX21 (UniProt Q9NR30)
inactive: [1] -0.004 | [2] -0.051 | [3] -0.092 | [4] 0.035 | [5] 0.285 | [6] -0.064 | [7] 0.167 | [8] 0.149 | [9] 0.194 | [10] -0.02 | [11] 0.036 | [12] 0.145 | [13] 0.005 | [14] -0.122 | [15] 0.022 | [16] 0.161 | [17] -0.047 | [18] -0.086 | [19] 0.328 | [20] 0.2

DDX4 (UniProt Q9NQI0)
inactive: [1] -0.451 | [2] 0.035 | [3] -0.328 | [4] -0.336 | [5] 0.263 | [6] -0.569 | [7] -0.447 | [8] 0.327 | [9] 0.271 | [10] -0.094 | [11] 0.139 | [12] -0.006 | [13] 0.067 | [14] -0.113 | [16] 0.047 | [17] -0.414 | [19] 0.025 | [20] -0.844

DHRS7 (UniProt Q9Y394)
inactive: [1] 0.105 | [2] 0.008 | [3] -0.006 | [4] -0.029 | [5] 0.008 | [6] 0.018 | [7] -0.02 | [8] -0.013 | [9] -0.029 | [10] -0.019 | [11] 0.021 | [12] 0.088 | [13] -0.042 | [14] 0.032 | [15] 0.034 | [16] 0 | [17] 0.033 | [18] 0.006 | [19] -0.021 | [20] 0.118

DLGAP4 (UniProt Q9Y2H0)
inactive: [1] 0.014 | [2] 0.031 | [3] 0.022 | [4] 0.026 | [5] -0.006 | [6] 0.004 | [7] -0.002 | [8] -0.013 | [9] -0.003 | [10] 0.049 | [11] 0.013 | [12] -0.011 | [13] -0.004 | [14] 0.016 | [15] 0.027 | [16] -0.002 | [17] -0.033 | [18] 0.034 | [19] -0.028 | [20] -0.043

DNAH11 (UniProt Q96DT5)
inactive: [1] -0.109 | [2] 0.064 | [3] -0.13 | [4] 0.044 | [5] -0.007 | [6] 0.199 | [7] -0.15 | [8] 0.17 | [9] 0.111 | [10] -0.051 | [11] 0.234 | [12] 0.426 | [13] -0.029 | [14] -0.157 | [16] 0.176 | [17] -0.111 | [19] 0.298 | [20] -0.424

DDAH2 (UniProt O95865)
inactive: [1] -0.034 | [2] -0.075 | [3] -0.01 | [4] 0 | [5] 0.048 | [6] -0.097 | [7] -0.015 | [8] -0.049 | [9] -0.107 | [10] 0.042 | [11] 0.004 | [12] 0.019 | [13] -0.032 | [14] 0.015 | [15] 0.032 | [16] 0.006 | [17] -0.088 | [18] 0 | [19] -0.073 | [20] 0.036
